These are yes or no findings as the source states them, for the method shown. Some results given as binding are weak or reduced against the parent protein; the word gives no strength.
Molecular target: T1, FSHR on Sertoli cells of prepubescent Large-White piglets (pig (piglets, Large-White breed)) (UniProt P49059)
T1 sequence (looked up): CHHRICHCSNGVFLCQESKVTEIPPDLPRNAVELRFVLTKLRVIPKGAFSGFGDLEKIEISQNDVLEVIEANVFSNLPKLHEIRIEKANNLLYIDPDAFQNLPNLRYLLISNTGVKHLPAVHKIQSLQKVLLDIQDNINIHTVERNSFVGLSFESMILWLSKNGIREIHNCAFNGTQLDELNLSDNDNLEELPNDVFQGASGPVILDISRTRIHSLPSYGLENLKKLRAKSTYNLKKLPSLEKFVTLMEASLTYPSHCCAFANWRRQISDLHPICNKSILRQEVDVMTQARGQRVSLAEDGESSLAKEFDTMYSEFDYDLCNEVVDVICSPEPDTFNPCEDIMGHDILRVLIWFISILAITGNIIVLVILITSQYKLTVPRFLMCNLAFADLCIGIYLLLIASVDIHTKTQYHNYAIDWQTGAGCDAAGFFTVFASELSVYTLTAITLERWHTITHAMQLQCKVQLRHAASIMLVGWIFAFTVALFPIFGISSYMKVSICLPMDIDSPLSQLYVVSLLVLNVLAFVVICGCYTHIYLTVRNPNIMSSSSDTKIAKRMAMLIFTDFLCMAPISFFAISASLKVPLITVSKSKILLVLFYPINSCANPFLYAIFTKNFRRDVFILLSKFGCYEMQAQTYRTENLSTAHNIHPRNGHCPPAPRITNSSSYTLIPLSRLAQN
Assay: estradiol production in piglet Sertoli cells

Amino acid sequences for entries named in this document (tags omitted). A change or cut given only in a name is not applied to a line headed by its entry.
UniProt P01215: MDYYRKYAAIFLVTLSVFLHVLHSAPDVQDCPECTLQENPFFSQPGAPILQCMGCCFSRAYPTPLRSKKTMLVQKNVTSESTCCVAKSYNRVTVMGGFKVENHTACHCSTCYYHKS

Gonal-F® (recombinant FSH-based commercial preparation) (from UniProt P01215 25-116; P01225 19-129) (ligand)
binding: binds

Reference: US12642841
